Data source: PubChem BioAssay AID686943 (Drosophila RNAi Screening Center, 2013)
In all, the deposit lists about 23,000 reagents; this is a random part of those with a known target gene and a result. 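Extra replicates exist only for a retested subset of genes; insulin dose and duration not given; both raised and lowered dpERK matter.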 Names joined by + are all predicted targets of the reagent. The record does not give: the amount of reagent, the time to read-out.

Assay: 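Fly genes whose loss alters ERK activation after insulin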 (primary screen)
System: Drosophila S2R+ haemocyte-like cells expressing YFP-tagged ERK (Rolled)
Knock-down reagent: long dsRNA against Drosophila genes
Treatment: insulin stimulation versus unstimulated cells; dose and duration not given
Measurement: 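Antibody staining for doubly phosphorylated ERK divided by ERK-YFP signal, as plate z-scores, in insulin-treated and untreated cells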
Direction: replicate 1, z-score of dpERK with insulin and replicate 2, z-score of dpERK with insulin: higher = more active ERK per ERK-YFP after insulin; replicate 1, z-score of dpERK under basal conditions: higher = more basal active ERK per ERK-YFP; replicate 1, z-score of ERK-YFP with insulin: higher = more YFP-tagged ERK signal

gene,DRSC id,"replicate 1, z-score of dpERK with insulin","replicate 2, z-score of dpERK with insulin","replicate 1, z-score of dpERK under basal conditions","replicate 1, z-score of ERK-YFP with insulin"
RpS20,DRSC16836,0.7,1.32,0.63,-4.81
Myo61F,DRSC22144,-1.14,0.02,-1.09,0.29
Dtwd2 + Obp84a,DRSC12603,-0.19,0.31,0.87,0.05
rhi,DRSC05996,-0.86,-0.24,0.12,0.74
Sfmbt,DRSC02552,1.02,1.02,0.37,1.22
l(2)k09913,DRSC04699,-1.33,0.05,-0.93,1.91
Odc1,DRSC07482,-0.22,-0.37,0.67,0.22

The list goes on, starting with the last 3 of the part before.
gene,DRSC id,"replicate 1, z-score of dpERK with insulin","replicate 2, z-score of dpERK with insulin","replicate 1, z-score of dpERK under basal conditions","replicate 1, z-score of ERK-YFP with insulin"
Sfmbt,DRSC02552,1.02,1.02,0.37,1.22
l(2)k09913,DRSC04699,-1.33,0.05,-0.93,1.91
Odc1,DRSC07482,-0.22,-0.37,0.67,0.22
CG12877,DRSC14565,0.16,0.04,-0.09,0.67
CG42597,DRSC03681,-0.44,0.06,0.08,0.28
Hdc,DRSC07439,-0.14,-0.4,0.19,-0.04
Adck1,DRSC04394,0.25,0.46,0.5,-0.24
CG3706,DRSC18649,0.69,0.32,-0.04,-0.45
Mco3,DRSC15926,1.22,-0.01,0,-0.1
mRpL1,DRSC16251,0.11,-1.42,-2.21,-0.96
CG42490 (retired record),DRSC01649,0.59,0.27,-1.02,0.24
CG33181,DRSC17971,-0.23,0.17,0.29,0.5
CG33181,DRSC22376,-1.2,0.12,-0.32,0.6
CG5715,DRSC15860,-0.23,0.21,0.92,0.2
CG32944,DRSC12138,-0.57,0.3,-0.09,0.42
CG32944,DRSC12341,-0.84,-0.37,-0.91,0.32
Paics,DRSC20305,0.16,-0.39,-0.38,-0.56
Ets98B,DRSC16666,1.03,-0.09,-0.22,-0.55
CG6280,DRSC06972,-0.02,0.09,-0.22,0.16
